Laboratory results reported in PubChem BioAssay AID504467 (National Center for Advancing Translational Sciences (NCATS), 2011).
About 7,700 (2.3%) of roughly 330,000 compounds were called active. Inconclusive means that the source gave no clear call. Such entries were picked first, then a sample of the others. Calls follow the shape of the dose curve; as a rule, active = well fitted inhibition curve with a large enough effect; inconclusive = small, poorly fitted or top-dose-only effect, or effect the other way; inactive = flat fitted curve, though single readings scatter. A potency beside an inconclusive call is a rough fit, not a confirmed value.

test: qHTS screen for small molecules that inhibit ELG1-dependent DNA repair in human embryonic kidney (HEK293T) cells expressing luciferase-tagged ELG1; conditions: HEK293T ELG1-luciferase reporter, luminescence, 16 h, DNA damage induced by 5-fluorouridine; activity change, negative = inhibition: at 46.1 µM (top of the series); also: nearly all actives have a fitted effect of over 55% in size
Summary of the method: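 Step one: seed 2,000 cells per well. Step two: pin-transfer compound or DMSO alongside 5-fluorouridine. Step three: incubate 16 hr, 37 °C, 5% CO2. Step four: add ONE-Glo, wait 30 min, read luminescence.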
% is scaled to controls: 0 for no effect and ±100 for the full control effect; potency is read from the fitted curve at half-maximal effect.

Structure (SMILES)	Potency	activity change, negative = inhibition
Cn1c(O)c(/C=N/Nc2ccccc2)c(=O)n(C)c1=O	inconclusive: 3.26 µM [inhibitor, partial curve, poor fit]	–
Cc1cc(NC(=O)CCl)nn1C	–	inactive: -15.7%
Cc1cc(C)cc(N2C(=O)/C(=C\c3ccc(N4CCN(C)CC4)o3)C(=O)NC2=S)c1	inconclusive: 18.3 µM [activator, partial curve]	–
C[C@@H]1C2C[C@@]34COC(=O)C3=CC=C[C@H]4[C@@]13C[C@H](c1ccoc1)O[C@@H]3O2	–	inactive: -2.42%
Cn1nc(OC(=O)Nc2ccc(Cl)cc2)cc1C(F)(F)F	inconclusive: 18.4 µM [activator, single point]	–
O=C(Cn1ncc2c3ccccc3n(Cc3ccc(F)cc3)c2c1=O)N1CCC2(CC1)OCCO2	active: 20.6 µM	–
COc1cc(/C=C2/C(=O)NC(=O)N(c3ccccc3)C2=O)ccc1O	–	inactive: -8.74%
Cc1ncoc1C(=O)NCCC(c1ccccc1)c1ccccc1	active: 20.6 µM	–
CCNC(=S)N(C)CCc1cc2c(c(OC)c1C=C1C(=O)N(C)C(=O)N(C)C1=O)OCO2	inconclusive: 29.1 µM [activator, partial curve, poor fit]	–
O=C(COc1ccc(Br)cc1)N1CCN(Cc2ccc3c(c2)OCO3)CC1	–	inactive: -13.9%
CC1(C)C(C(=O)N2CCN(c3ccc(Cl)cc3)CC2)C1(C)C	inconclusive: 29.1 µM [inhibitor, single point]	–
COc1ccc2[nH]cc(CCN)c2c1	–	inactive: -2.4%
Cc1ccccc1NC(=O)Cc1nc(COC(=O)Cc2ccccc2)cs1	–	inactive: 18.9%
COc1ccc(-c2cc(=Nc3ccccc3)c3cc(C)ccc3o2)cc1	inconclusive: 5.8 µM [activator, partial curve]	–
CCCCn1c(NS(=O)(=O)c2ccc(C)cc2)c(C(=O)OCC)c2nc3ccccc3nc21	–	inactive: -17.2%
CCC(C(=O)OCCOCCN(CC)CC)c1ccccc1 (centres undefined)	inconclusive: 29.1 µM [inhibitor, single point]	–
Cc1ccc(N=Nc2cc(C)ccc2N)cc1	inconclusive: 2.31 µM [activator, partial curve]	–
NNC(=O)c1ccc(Cl)cc1	inconclusive: 18.4 µM [activator, single point]	–
CNCCCc1ccccc1	–	inactive: 0.597%
CCCCCCC(=O)N/N=C/c1c(O)n(C(C)CC)c(=S)[nH]c1=O (centres undefined)	inconclusive: 4.61 µM [inhibitor, full curve]	–
CC(N)Cc1cn(Cc2ccccc2)c2ccccc12 (centres undefined)	–	inactive: 4.17%
COc1ccc(CNc2oc(-c3cccc4ccccc34)nc2P(=O)(OC)OC)cc1	inconclusive: 29.1 µM [inhibitor, single point]	–
c1cncc(C2CCCCN2Cc2ccc3c(c2)OCO3)c1 (centres undefined)	inconclusive: 16.4 µM [activator, single point]	–
COC(=O)C1=C(c2ccc(F)cc2OCc2ccccc2)C[C@@H]2CC[C@H]1N2C(=O)NCc1ccc(OC)c(OC)c1	inconclusive: 25.9 µM [inhibitor, single point]	–
O=C(NCc1ccccn1)c1ccccc1Cl	inconclusive: 25.9 µM [activator, single point]	–

Five compounds drawn at random from those above, as already listed:
Structure (SMILES)	Potency	activity change, negative = inhibition
Cc1cc(C)cc(N2C(=O)/C(=C\c3ccc(N4CCN(C)CC4)o3)C(=O)NC2=S)c1	inconclusive: 18.3 µM [activator, partial curve]	–
CCNC(=S)N(C)CCc1cc2c(c(OC)c1C=C1C(=O)N(C)C(=O)N(C)C1=O)OCO2	inconclusive: 29.1 µM [activator, partial curve, poor fit]	–
CCCCCCC(=O)N/N=C/c1c(O)n(C(C)CC)c(=S)[nH]c1=O (centres undefined)	inconclusive: 4.61 µM [inhibitor, full curve]	–
COC(=O)C1=C(c2ccc(F)cc2OCc2ccccc2)C[C@@H]2CC[C@H]1N2C(=O)NCc1ccc(OC)c(OC)c1	inconclusive: 25.9 µM [inhibitor, single point]	–
Cn1nc(OC(=O)Nc2ccc(Cl)cc2)cc1C(F)(F)F	inconclusive: 18.4 µM [activator, single point]	–

Next records:

Structure (SMILES)	Potency	activity change, negative = inhibition
COC(=O)C1=C(c2ccc(OCc3ccccc3)cc2)C[C@@H]2CC[C@H]1N2C(=O)NCc1ccccc1	inconclusive: 29.1 µM [inhibitor, single point]	–
CCOc1cc(CNCCc2ccccc2F)ccc1OC	–	inactive: 10.5%
COC(=O)C1=C(c2cccc(OCc3ccccc3)c2)C[C@@H]2CC[C@H]1N2C(=O)NCc1ccc2[nH]ccc2c1	inconclusive: 18.3 µM [inhibitor, single point]	–
CCOC(=O)c1cccc(NC2c3ccccc3C(=O)N2Cc2ccco2)c1 (centres undefined)	inconclusive: 16.4 µM [inhibitor, partial curve, poor fit]	–
Brc1ccc2[nH]cc(/C=N/N3CCCCC3)c2c1	–	inactive: -4.98%
O=C(NCC(c1cccnc1)N1CCN(c2ccc(F)cc2)CC1)Oc1ccccc1 (centres undefined)	inconclusive: 32.6 µM [inhibitor, single point]	–
CC1CCN(CCc2nc3ccccc3[nH]2)CC1	inconclusive: 4.61 µM [inhibitor, single point]	–
Cc1ccc(-c2nc3ccccc3c(=O)n2-n2cccc2)cc1	–	inactive: -0.475%
Nc1nc(N)c2nc(CNc3ccc(C(=O)NC(CCC(=O)O)C(=O)O)cc3)cnc2n1 (centres undefined)	inconclusive: 29.1 µM [activator, single point]	–
C/C(=N\OC(=O)NC(C)C)c1sc(-c2ccccc2)nc1C	inconclusive: 0.82 µM [activator, full curve, poor fit]	–
CC(C)C12CN3CCN(CC(C3)/C1=N\O)C2	–	inactive: -1.54%
O=C(O)c1cccc(NC(=O)N2C[C@H]3C[C@@H](C2)c2cccc(=O)n2C3)c1	–	inactive: 12.3%
Cc1cc(OCC(=O)NCC(O)c2ccccc2)c2c3c(c(=O)oc2c1)CCC3 (centres undefined)	inconclusive: 25.9 µM [inhibitor, partial curve, poor fit]	–
CCN1C(=O)C(=C2C=C(C)N(Cc3ccco3)C(C)=C2)C(=O)N(CC)C1=S	inconclusive: 29.1 µM [inhibitor, single point]	–
COC(=O)c1ccc(CC(C(=O)c2ccccc2)N(C)C)cc1 (centres undefined)	inconclusive: 16.4 µM [activator, partial curve]	–
CCCCNC(C)Cc1ccccc1 (centres undefined)	–	inactive: 1.15%
COc1ccc(OC)c(NP(=O)(Oc2ccc(Cl)cc2)Oc2ccc(Cl)cc2)c1	inconclusive: 29.1 µM [inhibitor, single point]	–
CC1(C)C[C@H]2C=C(C=O)[C@]3(C=O)C[C@]3(C)[C@H]2C1	active: 5.8 µM	–
CN1CCCCC1c1ccc(-c2cccnc2)nc1 (centres undefined)	–	inactive: 27.5%
CCOc1ccc(N2C(=O)c3ccccc3C2=O)cc1	inconclusive: 20.6 µM [activator, single point]	–
Cc1ccc2c(c1)[C@@H]1CN(C)CC[C@@H]1N2C(=O)Nc1cccc(C(F)(F)F)c1	–	inactive: 8.68%
CCCc1[nH]nc2c1C1(C(=O)N(Cc3ccccc3)c3ccccc31)C(C(=O)OC)=C(N)O2 (centres undefined)	inconclusive: 8.2 µM [inhibitor, partial curve]	–
Cc1ccc(C2CC3CCC(C2)N3Cc2ccccc2F)cc1 (centres undefined)	inconclusive: 1.83 µM [inhibitor, partial curve, poor fit]	–
Cn1c(=O)oc2cc(S(=O)(=O)CCC(=O)NCCc3ccccc3)ccc21	inconclusive: 29.1 µM [activator, partial curve, poor fit]	–
CN1CC(C(=O)c2ccc([N+](=O)[O-])cc2)C(c2ccc(Cl)cc2)C1 (centres undefined)	–	inactive: -1.12%

Structure (SMILES)	Potency	activity change, negative = inhibition
C=CCn1c(O)c(C(=O)CCCCCC)c(=O)[nH]c1=O	inconclusive: 29.1 µM [inhibitor, single point]	–
O=C(Nc1nc2c(s1)CCCC2)Oc1ccccc1	inconclusive: 14.6 µM [activator, partial curve]	–
CCOC(=O)c1c(C)n(CC(O)CN2CCOCC2)c2cc(Br)c(OC)cc12 (centres undefined)	inconclusive: 29.1 µM [inhibitor, single point]	–
Cc1ccc2c(c1)C(c1ccccc1)NCC(=O)N2 (centres undefined)	–	inactive: 5.19%
CC(Cc1ccccc1)NC(=O)NC(C)Cc1ccccc1 (centres undefined)	inconclusive: 13 µM [activator, partial curve]	–
Cc1ccc(-n2c(/C=C/c3ccc4c(c3)OCO4)nc3ccccc3c2=O)cc1	active: 18.4 µM	–
COc1ccc(CCN)cc1OC	–	inactive: 12.8%
O=C(c1ccc(Cl)cc1)C1CCCN(Cc2ccc3nonc3c2)C1 (centres undefined)	–	inactive: -6.24%
O=P(Oc1ccccc1)(Oc1ccccc1)c1ccccc1	–	inactive: -8.58%
Oc1cccc2cccnc12	inconclusive: 25.9 µM [inhibitor, partial curve, poor fit]	–
Cc1ccc(-n2nc(C)c3c2OC(N)=C(C#N)C3c2ccc(F)cc2)cc1 (centres undefined)	inconclusive: 18.4 µM [activator, partial curve, poor fit]	–
CCOc1ccc(N=Cc2c(O)n(Cc3ccccc3)c(=S)[nH]c2=O)cc1	–	inactive: 9.61%
Cc1ccc(NC(=O)c2ncn(CC(=O)NCc3ccc4c(c3)OCO4)n2)cc1C	inconclusive: 18.3 µM [activator, partial curve]	–
O=C1NC(=S)N(C2CC2)C(=O)/C1=C/c1ccc2c(c1)CCN2CCCCl	–	inactive: 27.6%
O=C(O)c1cccc2nc3ccccc3nc12	inconclusive: 23.1 µM [inhibitor, single point]	–
Nc1c(C(=O)NCCN2CCOCC2)c2nc3ccccc3nc2n1Cc1ccco1	active: 20.6 µM	–
CCCCn1c(=O)c(C(=O)NC(C)c2ccccc2)c(O)c2ccccc21 (centres undefined)	–	inactive: -10.4%
COc1ccc(C(C)(C)C)cc1NC(=O)CCCn1c(=O)oc2ccccc21	inconclusive: 29.1 µM [inhibitor, single point]	–
CC(C)(C)c1ccc(C(=O)NC(=S)Nn2cnnc2)cc1	inconclusive: 14.6 µM [activator, partial curve]	–
Cc1ccc(OCC(=O)N2CCN(Cc3ccc([N+](=O)[O-])cc3)CC2)cc1	active: 20.6 µM	–
COC(=O)C1=C(c2ccc(F)cc2F)C[C@@H]2CC[C@H]1N2C(=O)N1CCC(C)CC1	–	inactive: 8.16%
Cc1ccc2nc(-c3ccncc3)cc(C(=O)N3CCC4(CC3)OCCO4)c2c1	inconclusive: 20.6 µM [inhibitor, partial curve]	–
Cn1c(O)c(Cc2ccc(OCc3ccccc3)cc2)c(=O)n(C)c1=O	inconclusive: 23.1 µM [activator, single point]	–
COc1ccc(P2(=O)Nc3ccccc3N2)cc1	inconclusive: 11.6 µM [activator, partial curve]	–
